Source: the supplement of paper PMC6411743
± gives the standard deviation of the averaged measurements. Only a part is listed here, and it is no random draw. Most values lie at the level of the controls, where differences are scatter.

By UniProt entry, the sequences of proteins in these tests, tags left out. Where a name states a change or a piece, a line headed by the entry shows the natural chain unless it says otherwise.
UniProt O94903: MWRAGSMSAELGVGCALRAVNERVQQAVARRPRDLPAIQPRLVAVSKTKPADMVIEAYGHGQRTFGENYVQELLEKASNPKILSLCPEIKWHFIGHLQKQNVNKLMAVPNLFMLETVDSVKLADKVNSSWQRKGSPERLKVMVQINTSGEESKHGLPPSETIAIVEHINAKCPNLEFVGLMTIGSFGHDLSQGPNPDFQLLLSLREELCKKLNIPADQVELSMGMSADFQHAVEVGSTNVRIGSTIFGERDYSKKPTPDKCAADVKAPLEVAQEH
UniProt O75940: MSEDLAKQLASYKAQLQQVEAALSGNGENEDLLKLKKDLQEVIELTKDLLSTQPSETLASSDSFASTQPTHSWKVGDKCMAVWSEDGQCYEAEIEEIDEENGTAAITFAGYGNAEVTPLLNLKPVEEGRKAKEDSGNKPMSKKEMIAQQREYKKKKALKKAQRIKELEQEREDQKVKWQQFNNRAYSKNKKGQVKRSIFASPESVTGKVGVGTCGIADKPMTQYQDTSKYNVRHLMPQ
UniProt O95475: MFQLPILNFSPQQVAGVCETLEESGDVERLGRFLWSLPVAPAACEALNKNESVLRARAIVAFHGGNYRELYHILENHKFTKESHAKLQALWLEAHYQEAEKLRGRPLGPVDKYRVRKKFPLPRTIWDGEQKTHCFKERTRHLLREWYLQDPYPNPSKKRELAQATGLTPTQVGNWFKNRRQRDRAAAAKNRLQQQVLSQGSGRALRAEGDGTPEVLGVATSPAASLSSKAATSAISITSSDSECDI
UniProt O75844: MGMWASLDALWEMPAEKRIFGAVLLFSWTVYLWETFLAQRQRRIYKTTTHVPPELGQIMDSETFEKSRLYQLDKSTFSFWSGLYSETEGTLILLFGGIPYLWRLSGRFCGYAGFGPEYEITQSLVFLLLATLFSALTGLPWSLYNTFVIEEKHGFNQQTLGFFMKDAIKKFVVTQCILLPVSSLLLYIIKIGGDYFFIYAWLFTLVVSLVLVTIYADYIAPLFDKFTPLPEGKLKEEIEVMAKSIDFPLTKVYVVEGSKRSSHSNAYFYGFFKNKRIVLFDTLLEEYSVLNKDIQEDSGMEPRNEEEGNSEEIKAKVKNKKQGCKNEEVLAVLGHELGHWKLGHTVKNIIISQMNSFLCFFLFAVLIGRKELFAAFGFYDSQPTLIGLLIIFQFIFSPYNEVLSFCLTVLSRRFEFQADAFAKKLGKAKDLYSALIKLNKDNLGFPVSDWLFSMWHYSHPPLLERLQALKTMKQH
UniProt O75382: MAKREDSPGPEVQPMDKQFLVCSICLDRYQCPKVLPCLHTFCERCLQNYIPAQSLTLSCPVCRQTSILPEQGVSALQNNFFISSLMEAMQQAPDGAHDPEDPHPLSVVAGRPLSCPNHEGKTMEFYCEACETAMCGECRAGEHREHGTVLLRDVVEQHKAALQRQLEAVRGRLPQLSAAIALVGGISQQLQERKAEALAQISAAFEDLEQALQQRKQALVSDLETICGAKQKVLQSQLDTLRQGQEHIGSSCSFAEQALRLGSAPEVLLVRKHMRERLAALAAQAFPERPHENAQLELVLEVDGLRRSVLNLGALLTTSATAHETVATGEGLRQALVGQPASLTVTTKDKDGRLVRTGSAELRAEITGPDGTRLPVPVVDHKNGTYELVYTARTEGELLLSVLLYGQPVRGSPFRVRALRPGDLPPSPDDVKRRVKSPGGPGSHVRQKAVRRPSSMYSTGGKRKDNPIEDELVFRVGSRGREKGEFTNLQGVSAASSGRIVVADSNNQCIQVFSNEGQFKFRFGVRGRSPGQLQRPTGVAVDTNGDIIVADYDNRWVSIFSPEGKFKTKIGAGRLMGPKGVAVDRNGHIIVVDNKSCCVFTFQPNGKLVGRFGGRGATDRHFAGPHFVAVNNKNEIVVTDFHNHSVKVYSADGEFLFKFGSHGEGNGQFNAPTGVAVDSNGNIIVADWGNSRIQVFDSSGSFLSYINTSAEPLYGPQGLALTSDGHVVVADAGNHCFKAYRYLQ
UniProt O95169, whole entry: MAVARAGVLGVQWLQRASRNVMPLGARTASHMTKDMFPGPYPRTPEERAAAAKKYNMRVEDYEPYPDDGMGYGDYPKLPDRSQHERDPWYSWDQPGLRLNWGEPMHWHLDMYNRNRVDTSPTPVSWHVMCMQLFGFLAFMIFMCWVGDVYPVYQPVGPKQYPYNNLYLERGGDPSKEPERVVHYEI
UniProt O60925, whole entry: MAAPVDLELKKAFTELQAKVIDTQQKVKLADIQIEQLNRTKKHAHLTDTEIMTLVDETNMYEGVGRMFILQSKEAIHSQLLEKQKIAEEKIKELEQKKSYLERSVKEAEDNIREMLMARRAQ
UniProt O75695: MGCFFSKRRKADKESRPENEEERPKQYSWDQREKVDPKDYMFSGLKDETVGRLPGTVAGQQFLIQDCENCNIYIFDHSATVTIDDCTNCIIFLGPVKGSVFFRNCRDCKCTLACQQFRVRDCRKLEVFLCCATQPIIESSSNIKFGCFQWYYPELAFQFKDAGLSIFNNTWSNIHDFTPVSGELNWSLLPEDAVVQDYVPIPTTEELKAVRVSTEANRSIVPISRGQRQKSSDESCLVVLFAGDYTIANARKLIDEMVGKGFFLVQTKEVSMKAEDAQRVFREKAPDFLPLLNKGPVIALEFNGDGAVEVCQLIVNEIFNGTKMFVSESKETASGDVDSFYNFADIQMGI
UniProt O75935, whole entry: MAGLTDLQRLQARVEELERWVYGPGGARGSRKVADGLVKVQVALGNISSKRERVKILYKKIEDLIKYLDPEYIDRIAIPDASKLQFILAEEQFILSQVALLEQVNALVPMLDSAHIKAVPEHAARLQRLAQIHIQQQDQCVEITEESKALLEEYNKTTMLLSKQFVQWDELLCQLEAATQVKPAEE
UniProt O76071: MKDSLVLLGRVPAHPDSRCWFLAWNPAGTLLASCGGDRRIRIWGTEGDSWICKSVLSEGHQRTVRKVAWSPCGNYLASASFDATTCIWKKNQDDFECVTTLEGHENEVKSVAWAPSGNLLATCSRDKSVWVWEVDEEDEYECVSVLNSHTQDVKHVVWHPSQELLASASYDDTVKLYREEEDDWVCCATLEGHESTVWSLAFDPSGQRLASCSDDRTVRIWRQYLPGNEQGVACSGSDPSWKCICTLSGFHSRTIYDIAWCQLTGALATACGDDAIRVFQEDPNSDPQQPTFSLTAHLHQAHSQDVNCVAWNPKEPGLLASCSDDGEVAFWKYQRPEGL
UniProt O60858: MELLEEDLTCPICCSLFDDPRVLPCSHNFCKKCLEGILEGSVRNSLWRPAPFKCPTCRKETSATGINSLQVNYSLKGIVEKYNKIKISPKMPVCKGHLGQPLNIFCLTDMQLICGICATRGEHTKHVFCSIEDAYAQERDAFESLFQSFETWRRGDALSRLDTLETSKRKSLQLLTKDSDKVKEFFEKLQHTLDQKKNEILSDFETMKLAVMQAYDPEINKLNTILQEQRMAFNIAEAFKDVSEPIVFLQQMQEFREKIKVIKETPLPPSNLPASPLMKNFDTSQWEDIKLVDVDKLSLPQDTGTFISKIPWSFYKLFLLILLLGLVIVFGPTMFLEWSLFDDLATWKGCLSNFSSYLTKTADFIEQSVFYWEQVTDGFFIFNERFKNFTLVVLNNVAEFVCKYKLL
UniProt O75420: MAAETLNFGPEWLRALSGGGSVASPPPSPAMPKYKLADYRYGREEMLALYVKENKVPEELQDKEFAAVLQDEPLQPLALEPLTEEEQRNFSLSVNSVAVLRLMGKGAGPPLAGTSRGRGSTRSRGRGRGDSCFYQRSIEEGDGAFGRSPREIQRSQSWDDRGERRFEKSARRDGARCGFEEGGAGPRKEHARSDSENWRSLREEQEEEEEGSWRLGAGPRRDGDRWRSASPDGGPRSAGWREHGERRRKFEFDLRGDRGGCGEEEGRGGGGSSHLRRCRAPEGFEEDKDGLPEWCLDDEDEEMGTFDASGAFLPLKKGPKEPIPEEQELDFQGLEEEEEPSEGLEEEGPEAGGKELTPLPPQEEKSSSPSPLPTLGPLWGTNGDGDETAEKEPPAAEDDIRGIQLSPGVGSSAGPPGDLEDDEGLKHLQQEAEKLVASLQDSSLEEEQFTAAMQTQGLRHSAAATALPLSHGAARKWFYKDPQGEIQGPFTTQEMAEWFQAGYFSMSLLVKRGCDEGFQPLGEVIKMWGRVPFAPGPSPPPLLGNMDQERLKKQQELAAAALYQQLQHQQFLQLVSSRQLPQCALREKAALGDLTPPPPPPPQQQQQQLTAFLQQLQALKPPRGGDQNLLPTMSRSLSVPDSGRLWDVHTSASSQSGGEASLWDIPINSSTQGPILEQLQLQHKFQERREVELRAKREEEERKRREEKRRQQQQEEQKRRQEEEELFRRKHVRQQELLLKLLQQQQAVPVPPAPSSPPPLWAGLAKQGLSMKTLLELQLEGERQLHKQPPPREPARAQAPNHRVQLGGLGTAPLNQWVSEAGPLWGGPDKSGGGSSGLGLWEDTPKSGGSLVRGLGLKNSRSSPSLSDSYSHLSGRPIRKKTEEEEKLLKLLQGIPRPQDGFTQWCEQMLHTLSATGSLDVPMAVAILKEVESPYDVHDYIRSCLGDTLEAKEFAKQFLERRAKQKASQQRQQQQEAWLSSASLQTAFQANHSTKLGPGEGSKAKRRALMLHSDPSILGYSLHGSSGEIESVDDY
UniProt O95219: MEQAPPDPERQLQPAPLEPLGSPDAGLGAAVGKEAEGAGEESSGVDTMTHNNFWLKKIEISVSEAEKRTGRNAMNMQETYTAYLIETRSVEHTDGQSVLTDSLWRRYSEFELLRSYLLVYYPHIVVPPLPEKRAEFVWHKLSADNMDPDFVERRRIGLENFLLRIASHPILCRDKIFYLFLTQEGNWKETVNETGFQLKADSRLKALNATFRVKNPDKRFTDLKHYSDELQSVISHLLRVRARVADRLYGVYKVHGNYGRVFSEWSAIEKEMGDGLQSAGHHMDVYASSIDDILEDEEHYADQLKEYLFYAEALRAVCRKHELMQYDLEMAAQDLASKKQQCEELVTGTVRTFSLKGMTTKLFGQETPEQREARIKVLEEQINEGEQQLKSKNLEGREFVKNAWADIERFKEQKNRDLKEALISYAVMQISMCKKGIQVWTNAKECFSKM
UniProt O95486: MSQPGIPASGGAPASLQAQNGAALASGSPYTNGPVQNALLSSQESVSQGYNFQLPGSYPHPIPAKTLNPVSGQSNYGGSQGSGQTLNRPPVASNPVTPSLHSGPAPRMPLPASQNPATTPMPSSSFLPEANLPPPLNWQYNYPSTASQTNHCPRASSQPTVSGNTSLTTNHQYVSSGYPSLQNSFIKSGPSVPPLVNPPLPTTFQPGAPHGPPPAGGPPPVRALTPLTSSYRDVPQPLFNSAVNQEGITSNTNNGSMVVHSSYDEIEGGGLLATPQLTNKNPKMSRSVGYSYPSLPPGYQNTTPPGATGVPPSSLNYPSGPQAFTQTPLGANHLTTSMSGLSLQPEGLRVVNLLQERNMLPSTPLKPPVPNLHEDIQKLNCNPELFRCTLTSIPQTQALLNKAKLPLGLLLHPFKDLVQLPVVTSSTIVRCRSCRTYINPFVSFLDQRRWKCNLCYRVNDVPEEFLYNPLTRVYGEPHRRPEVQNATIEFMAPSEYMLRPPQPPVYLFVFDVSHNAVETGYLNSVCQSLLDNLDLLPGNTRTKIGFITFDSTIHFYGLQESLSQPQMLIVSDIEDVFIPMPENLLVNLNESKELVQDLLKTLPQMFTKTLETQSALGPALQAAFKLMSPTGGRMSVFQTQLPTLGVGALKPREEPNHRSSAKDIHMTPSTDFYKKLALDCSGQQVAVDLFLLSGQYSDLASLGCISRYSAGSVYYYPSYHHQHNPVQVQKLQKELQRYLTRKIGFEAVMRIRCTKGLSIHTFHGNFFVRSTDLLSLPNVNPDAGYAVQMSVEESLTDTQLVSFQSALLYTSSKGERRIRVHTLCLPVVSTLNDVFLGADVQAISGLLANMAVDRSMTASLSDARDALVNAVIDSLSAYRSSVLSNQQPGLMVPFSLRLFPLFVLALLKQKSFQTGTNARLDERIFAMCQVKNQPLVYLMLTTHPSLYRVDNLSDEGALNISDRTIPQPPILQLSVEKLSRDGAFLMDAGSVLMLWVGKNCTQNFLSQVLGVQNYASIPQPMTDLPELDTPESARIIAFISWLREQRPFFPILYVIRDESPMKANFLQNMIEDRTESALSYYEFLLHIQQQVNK
UniProt O76062: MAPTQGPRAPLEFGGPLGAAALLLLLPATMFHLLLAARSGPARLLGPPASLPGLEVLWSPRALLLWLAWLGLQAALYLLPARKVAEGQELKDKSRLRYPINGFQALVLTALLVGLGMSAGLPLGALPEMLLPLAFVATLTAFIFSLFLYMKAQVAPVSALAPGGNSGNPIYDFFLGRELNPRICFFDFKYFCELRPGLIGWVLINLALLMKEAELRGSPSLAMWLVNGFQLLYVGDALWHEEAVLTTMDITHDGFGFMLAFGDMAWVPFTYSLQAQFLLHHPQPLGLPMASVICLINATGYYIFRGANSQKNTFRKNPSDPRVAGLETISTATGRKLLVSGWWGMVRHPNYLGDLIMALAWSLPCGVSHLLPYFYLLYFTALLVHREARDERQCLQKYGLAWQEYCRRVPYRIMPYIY

Compound: Nc1ncnc2c1ncn2[C@@H]1O[C@H](COP(=O)(O)OP(=O)(O)OP(=O)(O)O)[C@@H](O)[C@H]1O [adenosine triphosphate]
Assay: NP40-soluble protein abundance relative to vehicle (solubility fold change) (ratio); higher = more soluble protein in presence of ATP
In short: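 Crude Jurkat lysate, prepared by Dounce homogenisation, was exposed to eight concentrations from 0.1 to 10 mM for 10 min at room temperature and then 3 min at 37 °C. Solubilisation used 0.8% NP40 with benzonase for 60 min at 4 °C, followed by ultracentrifugation and TMT labelling of the supernatant for LC-MS/MS. After vsn normalisation of intensities, each value is the fold change against the detergent-processed vehicle within each replicate, across three independent experiments.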

Target	NP40-soluble protein abundance (concentration: 0.1mM)	NP40-soluble protein abundance (concentration: 0.5mM)
UniProt O60880 and related entries	0.975 ± 0.037	0.956 ± 0.05
UniProt O94903	1.03 ± 0.042	1.01 ± 0.085
UniProt O94768	1.1 ± 0.023	1.12 ± 0.053
SMNDC1 (UniProt O75940)	1.02 ± 0.044	1.12 ± 0.059
UniProt O95475	1.02 ± 0.044	1.03 ± 0.065
UniProt O75865 and related entries	0.925 ± 0.18	0.931 ± 0.14
UniProt O60506 and related entries	0.989 ± 0.035	0.965 ± 0.022
UniProt O75410 and related entries	0.98 ± 0.014	0.973 ± 0.012
UniProt O95248-4|G5E933 and related entries	1.04 ± 0.055	1.02 ± 0.038
ZMPSTE24 (UniProt O75844)	1.05 ± 0.085	1.04 ± 0.084
UniProt O95466-2	0.94 ± 0.011	0.983 ± 0.063
UniProt O75382 and related entries	1.06 ± 0.12	1.11 ± 0.083
UniProt O75319 and related entries	0.951 ± 0.12	0.965 ± 0.043
UniProt O75534 and related entries	1.04 ± 0.054	1.04 ± 0.071
NDUFS3 (UniProt O75489)	0.992 ± 0.044	0.994 ± 0.044
UniProt O75582 and related entries	1.08 ± 0.054	1.09 ± 0.054
UniProt O94966-6|O94966-7|O94966-4	1.01 ± 0.016	0.984 ± 0.021
UniProt O75054 and related entries	0.972 ± 0.073	0.905 ± 0.13
NBN (UniProt O60934)	1.04 ± 0.023	1.05 ± 0.046
UniProt O95169 and related entries	0.902 ± 0.095	0.874 ± 0.15

Target	NP40-soluble protein abundance (concentration: 0.1mM)	NP40-soluble protein abundance (concentration: 0.5mM)
PFDN1 (UniProt O60925)	0.924 ± 0.12	0.895 ± 0.087
BRD4 (UniProt O60885)	1 ± 0.028	1.04 ± 0.047
RP2 (UniProt O75695)	1.05 ± 0.053	1.02 ± 0.064
UniProt O75935 and related entries	0.897 ± 0.1	0.872 ± 0.14
UniProt O95568 and related entries	0.998 ± 0.1	1.11 ± 0.079
UniProt O95758-2|O95758-6|O95758 and related entries	1.02 ± 0.058	1.03 ± 0.037
UniProt O75528	0.974 ± 0.038	1 ± 0.036
CIAO1 (UniProt O76071)	1.03 ± 0.042	0.9961 ± 0.0077
SLC16A7 (UniProt O60669)	0.972 ± 0.017	0.944 ± 0.0098
WFS1 (UniProt O76024)	1.11 ± 0.028	0.948 ± 0.064
PALM (UniProt O75781)	0.96 ± 0.025	0.928 ± 0.033
ATP6V1G1 (UniProt O75348)	0.909 ± 0.094	0.881 ± 0.16
UniProt O60858 and related entries	1.1 ± 0.037	1.09 ± 0.033
CCNT1 (UniProt O60563)	0.9946 ± 0.0075	1.07 ± 0.025
SS18L1 (UniProt O75177)	0.967 ± 0.12	1.01 ± 0.027
GRAP2 (UniProt O75791)	1.05 ± 0.061	1 ± 0.044
UniProt O75600 and related entries	0.977 ± 0.031	1.03 ± 0.043
GIGYF1 (UniProt O75420)	1.11 ± 0.11	1.16 ± 0.12
UniProt O60524 and related entries	0.981 ± 0.024	0.926 ± 0.044
SNX4 (UniProt O95219)	0.998 ± 0.043	0.951 ± 0.15

Single records, as listed above.
PALM (UniProt O75781) is listed as NP40-soluble protein abundance (concentration: 0.1mM): 0.96 ± 0.025; NP40-soluble protein abundance (concentration: 0.5mM): 0.928 ± 0.033
UniProt O95466-2 is listed as NP40-soluble protein abundance (concentration: 0.1mM): 0.94 ± 0.011; NP40-soluble protein abundance (concentration: 0.5mM): 0.983 ± 0.063
NDUFS3 (UniProt O75489) is listed as NP40-soluble protein abundance (concentration: 0.1mM): 0.992 ± 0.044; NP40-soluble protein abundance (concentration: 0.5mM): 0.994 ± 0.044
UniProt O60524 and related entries is listed as NP40-soluble protein abundance (concentration: 0.1mM): 0.981 ± 0.024; NP40-soluble protein abundance (concentration: 0.5mM): 0.926 ± 0.044

(list continues)

Target	NP40-soluble protein abundance (concentration: 0.1mM)	NP40-soluble protein abundance (concentration: 0.5mM)
DDHD2 (UniProt O94830)	1.04 ± 0.023	1.015 ± 0.01
UniProt O95251 and related entries	0.957 ± 0.092	1.03 ± 0.1
UniProt O75340 and related entries	1 ± 0.017	0.96 ± 0.071
UniProt O94964-2	0.984 ± 0.075	1 ± 0.069
UniProt O75947	0.901 ± 0.084	0.878 ± 0.11
ETHE1 (UniProt O95571)	1.01 ± 0.043	1.03 ± 0.071
UniProt O95479 and related entries	1.05 ± 0.049	1.02 ± 0.034
UniProt O75037 and related entries	0.963 ± 0.03	1.05 ± 0.054
RANBP6 (UniProt O60518)	1.01 ± 0.13	0.972 ± 0.087
UniProt O75808 and related entries	0.994 ± 0.094	0.945 ± 0.049
ZBTB7A (UniProt O95365)	0.973 ± 0.059	0.999 ± 0.018
RNASEH1 (UniProt O60930)	0.977 ± 0.051	1.03 ± 0.11
SEC24A (UniProt O95486)	1.06 ± 0.078	1.03 ± 0.1
UniProt O60828 and related entries	0.97 ± 0.017	1 ± 0.035
HIP1R (UniProt O75146)	1.02 ± 0.018	1.02 ± 0.02
UniProt O75688 and related entries	1.02 ± 0.036	0.987 ± 0.042
UniProt O76062 and related entries	1.07 ± 0.095	0.981 ± 0.079
UniProt O95551	0.986 ± 0.056	1 ± 0.031
UniProt O75925 and related entries	0.961 ± 0.045	0.925 ± 0.043
NPM3 (UniProt O75607)	0.996 ± 0.039	1.005 ± 0.0086
